Measured values: PubChem BioAssay AID493014 (National Center for Advancing Translational Sciences (NCATS), 2011)
Some of the results follow. Further columns of the screen follow, without active or inactive calls. Compounds called inactive in the main read-out are mostly missing here. Words in brackets tell the shape of the fitted curve; partial curves, single points and poor fits give uncertain potencies.

Experiment: qHTS Assay to Find Inhibitors of Chronic Active B-Cell Receptor Signaling
Conditions: ABC-DLBCL IkBa-CBG/CBR reporter, luminescence ratio (green luciferase fused to IkBa over red control in TMD8 lymphoma cells), 4 h
Outline: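 Doxycycline induced both beetle luciferases in TMD8 lymphoma cells; IKK-driven degradation limits the IkappaBalpha-fused green signal, while red luminescence normalises for cell number and nonspecific effects. Compounds tested up to 46 uM, 4 hrs.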

[1] = measured here: CBR red luminescence, cell number
[2] = measured here: IkBa-CBG green luminescence

CC(=O)N(C)/C=C1\Sc2ccccc2C1=O
AC50 [1]: 12.6 µM [falling, partial curve, poor fit]

COC(=O)c1ccc(N=NN2CCCCCC2)cc1
AC50 [1]: 29.1 µM [rising, single point]

COc1ccc(Nc2cc(O)c3ncccc3c2)cc1
AC50 [1]: 14.6 µM [falling, partial curve, poor fit]

COc1cc(C(=O)Sc2ccc(Cl)cc2)cc(OC)c1OC
AC50 [1]: 3.16 µM [falling, partial curve, poor fit]

COc1ccccc1CNC(=O)c1ccc(SC)cc1OC
AC50 [1]: 6.31 µM [falling, full curve, poor fit]

O=C(Nc1nc2ccc(S(=O)(=O)N3CCCC3)cc2s1)C1CCCCC1
AC50 [2]: 29.1 µM [falling, single point]

COCCN1C=C2C(=O)C(C)(OC(=O)CCc3ccccc3)C(=O)C=C2C=C1c1ccc(C#N)cc1 (stereo unspecified)
AC50 [1]: 0.0891 µM [rising, full curve, poor fit]

CC(NC(=O)C(=O)NCC1CCCO1)c1ccccc1 (stereo unspecified)
AC50 [1]: 14.1 µM [rising, single point]

CCOC(=O)CCc1c(C)nc2cc(-c3ccccc3OC)[nH]n2c1=O
AC50 [1]: 16.4 µM [falling, partial curve]

COc1ccc(OC)c(-c2csc(NC(=O)Cc3ccccc3)n2)c1
AC50 [1]: 20 µM [rising, partial curve, poor fit]

COC(=O)CSc1nc2c(c(-c3ccco3)c1C#N)CCCC2
AC50 [1]: 22.4 µM [falling, single point]

O=C(N/N=C/c1ccccc1Cl)c1cccc(F)c1
AC50 [1]: 25.1 µM [falling, single point]

O=C(Cn1c(COc2ccccc2)nc2ccccc21)Nc1cc(Cl)c(Cl)cc1Cl
AC50 [1]: 12.6 µM [falling, partial curve, poor fit]

NC(=O)CSc1n[nH]c(=O)n1CCc1ccccc1
AC50 [1]: 8.91 µM [rising, partial curve]

COc1cccc(C(=O)Nc2cc(NC(=O)c3cccs3)ccc2C)c1
AC50 [1]: 17.8 µM [falling, partial curve, poor fit]

CCOC(=O)C1=C(COC(=O)C(CC)c2ccccc2)NC(=O)NC1C (stereo unspecified)
AC50 [1]: 14.6 µM [falling, partial curve]

CCOC(=O)c1cc(CC)sc1NC(=O)c1ccc2c(c1)OCCO2
AC50 [1]: 3.26 µM [rising, single point]

CC1(C)CC(NC(=O)CC2CCCCC2)CC(C)(C)N1
AC50 [1]: 35.5 µM [falling, single point]

Nc1ccc2nn(-c3cccc4ccccc34)nc2c1
AC50 [1]: 0.708 µM [falling, partial curve, poor fit]

CC(C)(C)NC(=O)C[C@H]1C[C@H](C(=O)N2CCOCC2)[C@@]2(CCC3CCCC3)c3[nH]c4ccc(Cl)cc4c3CCN2C1=O
AC50 [1]: 10.3 µM [falling, partial curve, poor fit]

O=S(=O)(NCC(c1ccc2c(c1)OCO2)N1CCOCC1)c1ccc(Cl)cc1 (stereo unspecified)
AC50 [1]: 3.26 µM [rising, single point]

COc1ccc(-c2nc(-c3ccc4c(c3)OCO4)[nH]c2-c2ccc(OC)cc2)cc1
AC50 [1]: 16.4 µM [falling, partial curve] | AC50 [2]: 29.1 µM [rising, partial curve, poor fit]

Cc1cc(=O)oc2cc(OCc3ccc(C(=O)OCC(=O)Nc4ccc(N(C)C)cc4)cc3)ccc12
AC50 [1]: 5.01 µM [falling, partial curve, poor fit]

COc1ccc(N(CC(=O)N2CC=C(c3ccccc3)CC2)S(=O)(=O)c2c(C)noc2C)cc1
AC50 [1]: 14.1 µM [rising, partial curve, poor fit]

Cn1nccc1C(=O)Nc1sc2c(c1C(N)=O)CCCC2
AC50 [1]: 2.24 µM [rising, partial curve, poor fit]

CC(NC(=O)Nc1ccc(Cl)cc1)c1ccccc1 (stereo unspecified)
AC50 [1]: 1.26 µM [rising, full curve, poor fit]

COc1cccc(N=Cc2c(O)c3ccccc3oc2=O)c1
AC50 [1]: 7.08 µM [falling, partial curve, poor fit]

O=C(CN1C(=O)COc2ccccc21)Nc1ccc(F)cc1
AC50 [1]: 1.41 µM [falling, partial curve, poor fit]

Cc1cccnc1NC(=O)Nc1cccc(C(F)(F)F)c1
AC50 [1]: 0.651 µM [rising, full curve, poor fit]

CCc1nc2oc3cc(OC)ccc3c(=O)c2c(=O)n1Cc1ccco1
AC50 [1]: 7.08 µM [falling, partial curve]

C=C(C)C(=O)OCC(O)COc1ccc(C(C)(C)c2ccc(OCC(O)COC(=O)C(=C)C)cc2)cc1 (stereo unspecified)
AC50 [1]: 7.31 µM [falling, partial curve]

Cn1ncc2c(Nc3cccc4ccccc34)ncnc21
AC50 [1]: 29.1 µM [falling, single point]

CCS(=O)(=O)N1Cc2ccccc2CC1C(=O)Nc1nc2ccc(F)cc2s1 (stereo unspecified)
AC50 [1]: 0.82 µM [falling, full curve] | AC50 [2]: 23.1 µM [rising, partial curve, poor fit]

C/C(=N\NC(=O)c1cccnc1)c1ccc(C)c([N+](=O)[O-])c1
AC50 [1]: 25.1 µM [falling, single point]

COc1ccc(-n2cnc3cc(NS(=O)(=O)c4ccc(C)cc4)ccc32)cc1
AC50 [1]: 14.6 µM [falling, partial curve]

O=C(NCC1CCCN(C2Cc3ccccc3C2)C1)c1cccs1 (stereo unspecified)
AC50 [1]: 3.55 µM [falling, partial curve, poor fit]

Fc1ccc(Nc2c3c(nc4ccccc24)CCC3)cc1
AC50 [1]: 14.1 µM [falling, single point]

Nc1c(C(=O)Nc2ccc3c(c2)OCCO3)nnn1Cc1cccc(Br)c1
AC50 [1]: 16.4 µM [falling, single point]

CCOc1ccc(NC(=O)C(Cc2ccccc2)N2C(=O)c3cccc4cccc(c34)C2=O)cc1 (stereo unspecified)
AC50 [1]: 14.1 µM [falling, single point]

CCN(CC)C(=O)C1CCCN(C(=O)Nc2ccc3nsnc3c2)C1 (stereo unspecified)
AC50 [1]: 35.5 µM [falling, single point]

O=S(=O)(NCc1ccc(Cl)cc1)c1cnc[nH]1
AC50 [1]: 23.1 µM [falling, single point]

CCOC(=O)C1CCN(C(=O)c2cc3cc4ccc(OC)cc4nc3o2)CC1
AC50 [1]: 1.78 µM [falling, full curve]

O=C(NCc1ccccn1)c1c(O)c2cccc3c2n(c1=O)CC3
AC50 [1]: 35.5 µM [falling, single point]

CC(=O)OCC(OC(C)=O)C(OC(C)=O)C(OC(C)=O)C(=O)Nc1cccc(C)c1 (stereo unspecified)
AC50 [1]: 0.112 µM [rising, full curve, poor fit]

O=S(=O)(c1ccc2c(c1)CCC2)N1CCNCC1
AC50 [1]: 25.9 µM [rising, partial curve, poor fit]

CCOC(=O)C1=C(C)N=c2s/c(=C3/C(=O)Nc4ccccc43)c(=O)n2C1c1ccc(C)cc1 (stereo unspecified)
AC50 [1]: 18.4 µM [falling, partial curve, poor fit]

Nc1ccc(C(=O)N/N=C/c2cn(Cc3ccccc3F)c3ccccc23)cc1
AC50 [1]: 4.47 µM [falling, partial curve]

COc1ccc(-c2cn3c(C)c(C(=O)Nc4cc(NC(C)=O)ccc4OC)sc3n2)cc1
AC50 [1]: 11.6 µM [falling, partial curve]

CC(C)Cc1ccc(-c2cc(=O)[nH][nH]2)cc1
AC50 [1]: 22.4 µM [falling, partial curve, poor fit] | AC50 [2]: 20 µM [falling, single point]

CCOC(=O)N1CCN(C(=O)c2cc3c(-c4cccc(OC)c4)nn(C)c3s2)CC1
AC50 [1]: 25.1 µM [falling, partial curve, poor fit]

CSc1nsc(SCC(=O)Nc2ccccc2C(N)=O)n1
AC50 [1]: 0.501 µM [rising, full curve, poor fit]

CC(C(=O)NC1C=CS(=O)(=O)C1)N1C(=O)/C(=C/c2cccc(Cl)c2)SC1=S (stereo unspecified)
AC50 [1]: 22.4 µM [falling, partial curve, poor fit]

Nc1c(C(=O)CSc2nnc(COc3ccc(Cl)cc3)o2)c(=O)[nH]c(=O)n1C1CC1
AC50 [1]: 1.3 µM [rising, full curve]

CC(C)c1ccc(NC(=O)c2n[nH]c(=O)c3ccccc23)cc1
AC50 [1]: 0.447 µM [rising, full curve, poor fit]

COc1ccc(CCNc2nc(-c3sc(C)nc3C)cs2)cc1OC
AC50 [2]: 32.6 µM [rising, partial curve, poor fit]

COc1ccc(OC)c(NC(=O)Nc2nnc(N3CCCCC3C)s2)c1 (stereo unspecified)
AC50 [1]: 12.6 µM [falling, single point]

COc1ccc(C(=O)Nc2ccc3ccccc3n2)c(OC)c1OC
AC50 [1]: 3.16 µM [rising, partial curve]

CCc1ccc(S(=O)(=O)NCCc2cn3cccc(C)c3n2)s1
AC50 [1]: 12.6 µM [falling, partial curve, poor fit]

Cc1cc(C)n(CCc2nc(-c3ccc(-c4ccccc4)cc3)cs2)n1
AC50 [1]: 6.51 µM [rising, single point]

CC(=O)Nc1ccc2nc(NC(=O)COc3ccccc3C)sc2c1
AC50 [1]: 7.94 µM [falling, partial curve]

CCC(=O)Nc1ccc2c(c1)ncn2-c1ccc(OC)cc1
AC50 [1]: 29.1 µM [rising, single point]

CCC(=NCc1ccccc1)C1=C(O)C(C(=O)OC)C(C)(C)CC1=O (stereo unspecified)
AC50 [1]: 11.2 µM [rising, partial curve, poor fit]

O=C(CCN1CCOCC1)Nc1ccc2c(c1)N(C(=O)CN1CCOCC1)c1ccccc1CC2
AC50 [1]: 6.51 µM [falling, single point]
